Reference: PMC7819943, “Rice protein-binding microarrays: a tool to detect cis-acting elements near promoter regions in rice”
This is one part of the list.

The chains behind the UniProt entries cited, without tags or fusion partners.
UniProt Q0JBA9, entry or part of it: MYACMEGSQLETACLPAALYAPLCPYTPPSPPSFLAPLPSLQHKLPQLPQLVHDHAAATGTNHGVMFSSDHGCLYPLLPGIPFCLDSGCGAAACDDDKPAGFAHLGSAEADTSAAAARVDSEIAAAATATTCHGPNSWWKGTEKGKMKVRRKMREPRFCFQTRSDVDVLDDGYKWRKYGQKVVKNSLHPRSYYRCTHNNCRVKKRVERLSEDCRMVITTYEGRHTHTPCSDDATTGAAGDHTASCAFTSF

These sequences were tested against OsWRKY34 (Oryza sativa, UniProt Q0JBA9 1-250) (assay: protein-binding microarray (RPBM); PBS, 2% BSA, 51.3 ng/ul salmon testes DNA, 50 uM zinc acetate, 200 nM TF, 25 C, 1 h; high values mean tight binding). Settings: protein: recombinant; tags: N-terminal polyhistidine and DsRed monomer fusion (pET32a); label: CyDye5-dUTP incorporated in the synthesized complementary strand; 3' TTTTT single-stranded linker to array surface; dsDNA, one strand shown.
Procedure, shortened: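 In PBS with 2% BSA, salmon testes DNA and 50 µM zinc acetate, 200 nM protein was incubated on a custom Agilent array at 25 °C for 1 h and then washed off. The array had been made double-stranded by primer extension with Cy5-dUTP and blocked with 2% BSA. The proteins were transcription factors fused N-terminally to polyhistidine and DsRed, expressed in E. coli BL21-CodonPlus and purified on Ni–NTA. The binding signal is per-feature fluorescence intensity (arbitrary units) from an Axon 4000B scanner.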

Sequence | binding signal
TCAAAAGGTCCAAGCCCCGAATGTCAACTAATTCATCACTCGGAGTCACCTAGTGCAG | 8890 fluorescence intensity (a.u.)
AATCTCATCCTAATTCTGTTTTAATTTCTGGTGGGAATTTCGGAGTCACCTAGTGCAG | 8070 fluorescence intensity (a.u.)
TCCTTGCACTGTTGCTGCTGCTGATGCTTCACGTCGTCCGCGGAGTCACCTAGTGCAG | 10300 fluorescence intensity (a.u.)
GTGGTGGTAGTGGTAGTGGAGTGAGTGTAGGGGCCTCATGCGGAGTCACCTAGTGCAG | 8700 fluorescence intensity (a.u.)
AGCCTTATCTCTTCATCGGTTCATCCGGTGCCTGTTGTCTCGGAGTCACCTAGTGCAG | 8990 fluorescence intensity (a.u.)
CGGTCTTCGGTCTTTCGGTCATTTCGGTCTTTGCAATCTCCGGAGTCACCTAGTGCAG | 12700 fluorescence intensity (a.u.)
CAATTAGTTAAATATGTCAGATCGTTTACTTTCTTTTTGACGGAGTCACCTAGTGCAG | 8260 fluorescence intensity (a.u.)
TCTTTAGCCGGCGTTGCTTTTTTTGGGATTTCTTGGGAGTCGGAGTCACCTAGTGCAG | 8290 fluorescence intensity (a.u.)
TTTAAAAGTCAACGGCGTCAGAGGGAGTATATATTTTAGCCGGAGTCACCTAGTGCAG | 9840 fluorescence intensity (a.u.)
AACTCATATGACAGTGATCTTCCATTCCACTTTCTATCTACGGAGTCACCTAGTGCAG | 11100 fluorescence intensity (a.u.)
CTGTACCCCGCTACTCCTCTTTCTCCTCTTTTATCTTTTCCGGAGTCACCTAGTGCAG | 8630 fluorescence intensity (a.u.)
CGCGCTCTGCATGTCGGTCCGTCAACTTGATCGCGATTCTCGGAGTCACCTAGTGCAG | 8590 fluorescence intensity (a.u.)
ATATTCTCCTATCACATGTGCGGGGCTTATCCCTTCCACCCGGAGTCACCTAGTGCAG | 9630 fluorescence intensity (a.u.)
ATGGAGAGGCAACATAGACTTTTTTCCCAGGTTAAAACCACGGAGTCACCTAGTGCAG | 8330 fluorescence intensity (a.u.)
AATTTTTTTTCAGCTGATCGCCACTTTATTCTTTTCATACCGGAGTCACCTAGTGCAG | 10200 fluorescence intensity (a.u.)
ATCTTAACCATGTCATCAGGCACTTCGTTTGCTAGCCATGCGGAGTCACCTAGTGCAG | 8210 fluorescence intensity (a.u.)
TCATGTCGTTTCTAATCTGGTGCCTGTCCTCTATCCTTAACGGAGTCACCTAGTGCAG | 9740 fluorescence intensity (a.u.)
TAGGGCTTACACCGTCGTTTTCGCTCCCTTTTGGCTGCCTCGGAGTCACCTAGTGCAG | 9010 fluorescence intensity (a.u.)
ACCTTTATAAAAAAAGTCTAATTATTGCCTAGCTTTTTCCCGGAGTCACCTAGTGCAG | 9380 fluorescence intensity (a.u.)
ATGGCCACTTGTCTTTTTCTTTAGTTACTACCAATTTCTACGGAGTCACCTAGTGCAG | 10400 fluorescence intensity (a.u.)
TCGCCGGCGGAGGAGTTGGTGTGGAGAGGGCGGGGAGATGCGGAGTCACCTAGTGCAG | 9560 fluorescence intensity (a.u.)

Sequence | binding signal
GTAGCAATGGGCGGCGGGGAGCGGGGCTGAGCGGCAGCCGCGGAGTCACCTAGTGCAG | 8150 fluorescence intensity (a.u.)
ACTGATTTCCCGTCTATCCTGTGGCACCATTCATACTTCACGGAGTCACCTAGTGCAG | 12500 fluorescence intensity (a.u.)
TTTTTGGTTTGCGTTTCTTAGAACTGGAGTGTTTTTTTTTCGGAGTCACCTAGTGCAG | 9740 fluorescence intensity (a.u.)
GACCTGATTCTTTGCCTTCGTAAATTCCGTCAACGCACCTCGGAGTCACCTAGTGCAG | 10400 fluorescence intensity (a.u.)
ACCCGTCTTGCAAAGTTGCCAATCGTCAAGGCCTCGCACGCGGAGTCACCTAGTGCAG | 9940 fluorescence intensity (a.u.)
CATTCTCCGCGCGGACGCTTTTCAAACTGCTAAACGGTATCGGAGTCACCTAGTGCAG | 11000 fluorescence intensity (a.u.)
GGTAGTCTTTAGTTTGCTTTTTTTTCATGATTGGTGTCTTCGGAGTCACCTAGTGCAG | 8820 fluorescence intensity (a.u.)
AGCCCATTGTTTGACACAGCCGTCTCCTCTCCATCTCTCCCGGAGTCACCTAGTGCAG | 8270 fluorescence intensity (a.u.)
TCCAAACCACCACACAAACGGCGTCCCAGTGCGCACTTATCGGAGTCACCTAGTGCAG | 8880 fluorescence intensity (a.u.)
TTGGTGGTTGGTGGGGAGCGTGGAGATGGCGGGGCTGTCCCGGAGTCACCTAGTGCAG | 22200 fluorescence intensity (a.u.)
ATCCGTGTCAGCGTCACTCATCACGCACGCACCCATCAAACGGAGTCACCTAGTGCAG | 9290 fluorescence intensity (a.u.)
ATAAATATGCCCCGGATCCATCTCTCCACCGCATCTCTCCCGGAGTCACCTAGTGCAG | 9230 fluorescence intensity (a.u.)
TCCCTATAGAATATCTTCTCGGTTTTTACATGTCACCTAACGGAGTCACCTAGTGCAG | 9420 fluorescence intensity (a.u.)
CTCCACCATCTCCCCGCATCCATCCTCACATCGCGCGGGACGGAGTCACCTAGTGCAG | 9230 fluorescence intensity (a.u.)
GGGTTTCCGCCGCCTCTCGTCCGCCTCGCCGACCTCGGACCGGAGTCACCTAGTGCAG | 10900 fluorescence intensity (a.u.)
CTCCATTTCCAACTTCCACTGTAGTTAGCTCGTGCAGGCACGGAGTCACCTAGTGCAG | 11900 fluorescence intensity (a.u.)
AATCGTTGAACCCTACTGCACGTGCACTTGTATTTATTTTCGGAGTCACCTAGTGCAG | 11400 fluorescence intensity (a.u.)
ACTCCCTCCATCTTATGATTTTGACTTTTGCTTGCACTGTCGGAGTCACCTAGTGCAG | 8490 fluorescence intensity (a.u.)
TCTATTTCGGACGCAAATCACACACTTCCTATCCATCTCTCGGAGTCACCTAGTGCAG | 8720 fluorescence intensity (a.u.)
CCACCACCGCCGTGAGCTTGCCCCGCACTGGATCGGCCCTCGGAGTCACCTAGTGCAG | 8160 fluorescence intensity (a.u.)
ATTGTTCTAGTAGTCCACCGTTTTTCTTGGATTTTCTTCACGGAGTCACCTAGTGCAG | 12000 fluorescence intensity (a.u.)

Some of the entries above, set out differently:
Sequence,binding signal
ACTGATTTCCCGTCTATCCTGTGGCACCATTCATACTTCACGGAGTCACCTAGTGCAG,12500 fluorescence intensity (a.u.)
TTTTTGGTTTGCGTTTCTTAGAACTGGAGTGTTTTTTTTTCGGAGTCACCTAGTGCAG,9740 fluorescence intensity (a.u.)
GACCTGATTCTTTGCCTTCGTAAATTCCGTCAACGCACCTCGGAGTCACCTAGTGCAG,10400 fluorescence intensity (a.u.)
ACCCGTCTTGCAAAGTTGCCAATCGTCAAGGCCTCGCACGCGGAGTCACCTAGTGCAG,9940 fluorescence intensity (a.u.)
CATTCTCCGCGCGGACGCTTTTCAAACTGCTAAACGGTATCGGAGTCACCTAGTGCAG,11000 fluorescence intensity (a.u.)
GGTAGTCTTTAGTTTGCTTTTTTTTCATGATTGGTGTCTTCGGAGTCACCTAGTGCAG,8820 fluorescence intensity (a.u.)
AGCCCATTGTTTGACACAGCCGTCTCCTCTCCATCTCTCCCGGAGTCACCTAGTGCAG,8270 fluorescence intensity (a.u.)
TCCAAACCACCACACAAACGGCGTCCCAGTGCGCACTTATCGGAGTCACCTAGTGCAG,8880 fluorescence intensity (a.u.)
TTGGTGGTTGGTGGGGAGCGTGGAGATGGCGGGGCTGTCCCGGAGTCACCTAGTGCAG,22200 fluorescence intensity (a.u.)
